These results are taken from publication PMC9814157.

The target of the assay is adaptor protein Grb2 (mouse (endogenous in splenic B cells)), Q60631. Put plainly: co-IP; lysates of β1^WT and β1^KO transitional B cells incubated with beads cross-linked with α-Grb2 or control α-Ig antibodies; immunoblot for Grb2 and FAK; primary cells without activation of integrins. The conditions noted are these: remark: other sources report otherwise.

No constants are given. Whether binding was seen depends on the method and setting. In cells and extracts the contact can be indirect.

B1: focal adhesion kinase (FAK), P34152 1-1052 (protein)
chain: MAAAYLDPNLNHTPSSSTKTHLGTGMERSPGAMERVLKVFHYFESSSEPTTWASIIRHGDATDVRGIIQKIVDSHKVKHVACYGFRLSHLRSEEVHWLHVDMGVSSVREKYELAHPPEEWKYELRIRYLPKGFLNQFTEDKPTLNFFYQQVKSDYMQEIADQVDQEIALKLGCLEIRRSYWEMRGNALEKKSNYEVLEKDVGLKRFFPKSLLDSVKAKTLRKLIQQTFRQFANLNREESILKFFEILSPVYRFDKECFKCALGSSWIISVELAIGPEEGISYLTDKGCNPTHLADFNQVQTIQYSNSEDKDRKGMLQLKIAGAPEPLTVTAPSLTIAENMADLIDGYCRLVNGATQSFIIRPQKEGERALPSIPKLANSEKQGMRTHAVSVSETDDYAEIIDEEDTYTMPSTRDYEIQRERIELGRCIGEGQFGDVHQGVYLSPENPALAVAIKTCKNCTSDSVREKFLQEALTMRQFDHPHIVKLIGVITENPVWIIMELCTLGELRSFLQVRKYSLDLASLILYAYQLSTALAYLESKRFVHRDIAARNVLVSSNDCVKLGDFGLSRYMEDSTYYKASKGKLPIKWMAPESINFRRFTSASDVWMFGVCMWEILMHGVKPFQGVKNNDVIGRIENGERLPMPPNCPPTLYSLMTKCWAYDPSRRPRFTELKAQLSTILEEEKVQQEERMRMESRRQATVSWDSGGSDEAPPKPSRPGYPSPRSSEGFYPSPQHMVQTNHYQVSGYPGSHGIPAMAGSIYQGQASLLDQTELWNHRPQEMSMWQPSVEDSAALDLRGMGQVLPPHLMEERLIRQQQEMEEDQRWLEKEERFLKPDVRLSRGSIDREDGSFQGPTGNQHIYQPVGKPDPAAPPKKPPRPGAPGHLSNLSSISSPADSYNEGVKLQPQEISPPPTANLDRSNDKVYENVTGLVKAVIEMSSKIQPAPPEEYVPMVKEVGLALRTLLATVDETIPALPASTHREIEMAQKLLNSDLGELISKMKLAQQYVMTSLQQEYKKQMLTAAHALAVDAKNLLDVIDQARLKMLGQTRPH
As for B1, the binding entry is reported as “no binding”.
